Source: PubChem BioAssay AID1487 (National Center for Advancing Translational Sciences (NCATS), 2009)
The list shows a part of the results. Shown are side measurements of this screen, not its main read-out; they come without a call. Most of these compounds were active or inconclusive in the main read-out, so they are no random draw. Potencies come from curve fits of mixed quality, noted in brackets.

Assay: qHTS Assay for Modulators of Lamin A Splicing
Details: HeLa LMNA splicing GFP/RFP minigene ratio, 48 h
Outline: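 S3 HeLa stable clones carrying a lamin A-EGFP splicing minigene plus DsRed2 were seeded at 600 cells/well in Opti-MEM with 2% FBS, pin-dosed and incubated 48 h at 37°C. Acumen cytometry (488 nm) gave the GFP/RFP total-intensity ratio.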

[1] = measured here: GFP splicing reporter channel
[2] = measured here: RFP viability control channel

Row | Compound | AC50 [1] | AC50 [2]
1 | COc1ccc(-c2nc(CNC(=O)Nc3ccccc3)c(C)o2)c(OC)c1 | 0.158 µM [rising, full curve, poor fit] | –
2 | Cc1c(Cl)cccc1NC(=O)C(=O)NCCc1csc2nc(-c3ccccc3F)nn12 | 35.5 µM [falling, single point] | 3.55 µM [falling, partial curve, poor fit]
3 | CC(C)n1cc(/C=C2/SC(=O)N(CC(=O)Nc3ccc4c(c3)OCO4)C2=O)c2ccccc21 | – | 35.5 µM [falling, single point]
4 | COc1cc(N/N=C(\C)c2ccc(N)cc2)nc(-c2ccccc2)n1 | – | 35.5 µM [rising, single point]
5 | N#Cc1c(-n2cccc2/C=N/O)sc2c1CCCC2 | – | 0.0141 µM [falling, full curve, poor fit]
6 | CC(C)(C)c1nc(SCC(=O)Nc2nc3c(s2)CCCC3)c2ccccc2n1 | 14.1 µM [falling, partial curve] | 2.24 µM [rising, partial curve]
7 | Cc1cc(C)cc(Oc2nc(C(F)(F)F)nc3ccccc23)c1 | – | 20 µM [rising, single point]
8 | Cc1ccc(S(=O)(=O)c2cn(Cc3ccccc3)c3cc(N4CCOCC4)c(F)cc3c2=O)cc1 | – | 10 µM [rising, partial curve]
9 | COc1cccc(NC(=S)N(CCc2c(C)[nH]c3ccccc23)Cc2ccco2)c1 | 10 µM [rising, single point] | 15.8 µM [rising, partial curve]
10 | Cc1ccc(S(=O)(=O)/N=C(/Nc2c(C)n(C)n(-c3ccccc3)c2=O)c2ccccc2)cc1 | 3.16 µM [falling, single point] | 3.55 µM [falling, single point]
11 | COc1cccc(C(=O)Nc2cccc(-c3nnc(-c4ccco4)o3)c2)c1 | 35.5 µM [falling, single point] | 5.01 µM [falling, partial curve, poor fit]
12 | COc1cc(C(=O)OCC(=O)c2c[nH]c3ccccc23)ccc1OCC(=O)N1CCOCC1 | 10 µM [rising, single point] | –
13 | CCCCNC(=O)CSc1nc2ccc(NC(=O)CSc3nnc(N)s3)cc2s1 | – | 35.5 µM [rising, single point]
14 | C=CCn1c(O)c(N=NC(=S)Nc2ccc(OC)cc2)c2ccccc21 | 6.31 µM [rising, partial curve] | 10 µM [rising, partial curve]
15 | CCOc1ccc(NS(=O)(=O)c2ccc3c(c2)CCN3C(=O)C2CCC2)cc1 | 35.5 µM [rising, single point] | 35.5 µM [rising, single point]
16 | Cn1c(=NC(=O)C2=NNC(=O)CC2)sc2ccccc21 | 4.47 µM [rising, partial curve, poor fit] | –
17 | CSc1nc2[nH]c3c(c2c2nnnn12)CCCC3 | 11.2 µM [rising, partial curve, poor fit] | 11.2 µM [rising, partial curve, poor fit]
18 | CCN1CCN(c2ccc(NC(=O)c3ccc4c(c3)[nH]c(=O)n4Cc3ccc(F)cc3)cc2)CC1 | – | 12.6 µM [rising, single point]
19 | Nc1cc(N2CCCC2)ccc1[N+](=O)[O-] | – | 6.31 µM [falling, single point]
20 | CCn1cc(/C=C/C(=O)Nc2c(C)nn(Cc3ccccc3C)c2C)cn1 | 31.6 µM [rising, single point] | 31.6 µM [rising, single point]
21 | Oc1ccc(N2CCN(c3ncnc4sc5c(c34)CCC5)CC2)cc1 | 5.01 µM [rising, partial curve] | 11.2 µM [rising, partial curve]
22 | CCOC(=O)c1cc(C#N)c(SC)nc1-c1ccccc1 | 35.5 µM [rising, single point] | –
23 | FC(F)(F)c1cccc(Sc2cc(C(F)(F)F)nc(-c3ccccn3)n2)c1 | 20 µM [falling, partial curve] | 31.6 µM [falling, single point]
24 | O=C(NC(=S)NNC(=O)c1ccc(Cl)cc1Cl)c1cccnc1 | – | 22.4 µM [rising, partial curve, poor fit]
25 | COCCCNc1ncnc2ccc(C)cc12 | – | 31.6 µM [rising, single point]
26 | CCOc1ccc(N2CC(NC(=O)c3ccc(Cl)cc3)CC2=O)cc1 (stereo not drawn) | 6.31 µM [rising, partial curve, poor fit] | –
27 | CCNC(=O)C12CCC(C)(C(=O)O1)C2(C)C (stereo not drawn) | 35.5 µM [rising, single point] | –

3 entries from above, sorted by length of the SMILES, rising.
Row | Compound | AC50 [1] | AC50 [2]
26 | CCOc1ccc(N2CC(NC(=O)c3ccc(Cl)cc3)CC2=O)cc1 (stereo not drawn) | 6.31 µM [rising, partial curve, poor fit] | –
2 | Cc1c(Cl)cccc1NC(=O)C(=O)NCCc1csc2nc(-c3ccccc3F)nn12 | 35.5 µM [falling, single point] | 3.55 µM [falling, partial curve, poor fit]
8 | Cc1ccc(S(=O)(=O)c2cn(Cc3ccccc3)c3cc(N4CCOCC4)c(F)cc3c2=O)cc1 | – | 10 µM [rising, partial curve]
